From publication PMC2398774
Results are given in words; binding and its absence hold for the method and conditions named. Binding seen in cells or lysates may run through a third protein. Some results given as binding are weak or reduced against the parent protein; the word gives no strength.

Chains of the proteins cited; added tags and fusions are not shown. Residues count along the entry.
UniProt Q01705, residues 1744-2531: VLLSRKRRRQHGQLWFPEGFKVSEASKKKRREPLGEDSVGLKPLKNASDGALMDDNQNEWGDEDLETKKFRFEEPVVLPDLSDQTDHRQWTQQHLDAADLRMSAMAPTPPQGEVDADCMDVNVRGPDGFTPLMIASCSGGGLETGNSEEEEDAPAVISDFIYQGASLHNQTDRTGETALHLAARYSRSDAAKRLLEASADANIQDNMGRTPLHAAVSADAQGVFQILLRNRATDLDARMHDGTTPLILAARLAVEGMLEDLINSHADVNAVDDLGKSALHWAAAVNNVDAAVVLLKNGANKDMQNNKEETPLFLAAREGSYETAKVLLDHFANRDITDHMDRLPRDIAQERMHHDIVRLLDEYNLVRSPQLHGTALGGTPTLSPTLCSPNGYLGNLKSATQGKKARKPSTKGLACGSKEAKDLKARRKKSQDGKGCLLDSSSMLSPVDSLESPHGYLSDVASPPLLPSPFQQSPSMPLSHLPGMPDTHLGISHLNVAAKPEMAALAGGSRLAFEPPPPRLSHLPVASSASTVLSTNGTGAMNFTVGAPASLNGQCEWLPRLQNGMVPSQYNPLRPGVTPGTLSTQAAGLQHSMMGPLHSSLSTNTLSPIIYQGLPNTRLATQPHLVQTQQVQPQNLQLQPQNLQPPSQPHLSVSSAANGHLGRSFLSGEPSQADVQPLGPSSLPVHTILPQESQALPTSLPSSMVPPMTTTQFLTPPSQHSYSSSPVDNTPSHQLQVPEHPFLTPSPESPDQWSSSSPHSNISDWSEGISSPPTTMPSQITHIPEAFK
UniProt Q8BUN5: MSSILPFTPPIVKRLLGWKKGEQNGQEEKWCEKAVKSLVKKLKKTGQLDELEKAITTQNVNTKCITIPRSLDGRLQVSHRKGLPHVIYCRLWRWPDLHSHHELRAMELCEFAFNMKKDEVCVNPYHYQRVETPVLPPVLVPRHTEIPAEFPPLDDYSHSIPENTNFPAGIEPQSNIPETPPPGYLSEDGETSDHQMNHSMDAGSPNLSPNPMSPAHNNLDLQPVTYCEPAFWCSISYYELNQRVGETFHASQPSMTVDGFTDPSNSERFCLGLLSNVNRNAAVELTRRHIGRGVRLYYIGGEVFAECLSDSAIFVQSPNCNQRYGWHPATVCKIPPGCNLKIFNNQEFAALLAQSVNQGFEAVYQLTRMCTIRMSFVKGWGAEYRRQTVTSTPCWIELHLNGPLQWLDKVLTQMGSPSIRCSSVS

What was measured:
GST-NICD (mouse) = GST-NICD (mouse) (UniProt Q01705); assay: pull-down; GST-fusion proteins on glutathione-agarose beads mixed (1:1) with 35S-labelled in vitro translated proteins in lysis buffer (50 mM Tris pH 8.0, 150 mM NaCl, 0.1% SDS, sodium deoxycholate, protease inhibitors), 1 h at 4°C; SDS-PAGE, autoradiography; only the target purified
GST-Smad3 = GST-Smad3 (UniProt Q8BUN5); assay: as above

| Binder | binding (GST-NICD (mouse)) | binding (GST-Smad3) |
| --- | --- | --- |
| Foxc1 (protein, UniProt Q61572 1-553, [35S]methionine-labelled) MQARYSVSSPNSLGVVPYLGGEQSYYRAAAAAAGGGYTAMPAPMSVYSHPAHAEQYPGSMARAYGPYTPQPQPKDMVKPPYSYIALITMAIQNAPDKKITLNGIYQFIMDRFPFYRDNKQGWQNSIRHNLSLNECFVKVPRDDKKPGKGSYWTLDPDSYNMFENGSFLRRRRRFKKKDAVKDKEEKGRLHLQEPPPPQAGRQPAPAPPEQAEGSAPGPQPPPVRIQDIKTENGTCPSPPQPLSPAAALGSGSAATVPKIESPDSSSSSLSSGSSPPGSLPSARPLSLDAAEPAPPPQPAPPPHHSQGFSVDNIMTSLRGSPQGSAAELGSGLLASAAASSRAGIAPPLALGAYSPGQSSLYSSPCSQSSSAGSSGGGGGGGGGGGGSSSAAGTGGAATYHCNLQAMSLYAAGERGGHLQGPAGGAGSAAVDDPLPDYSLPPATSSSSSSLSHGGGGQEASHHPASHQGRLTSWYLNQAGGDLGHLASAAAAAAAAGYPGQQQNFHSVREMFESQRIGLNNSPVNGNSSCQMAFPASQSLYRTSGAFVYDCSKF | no binding | binds |
| Foxc2 (protein, UniProt Q61850 1-494, [35S]methionine-labelled) MQARYSVSDPNALGVVPYLSEQNYYRAAGSYGGMASPMGVYSGHPEQYGAGMGRSYAPYHHQPAAPKDLVKPPYSYIALITMAIQNAPEKKITLNGIYQFIMDRFPFYRENKQGWQNSIRHNLSLNECFVKVPRDDKKPGKGSYWTLDPDSYNMFENGSFLRRRRRFKKKDVPKDKEERAHLKEPPSTTAKGAPTGTPVADGPKEAEKKVVVKSEAASPALPVITKVETLSPEGALQASPRSASSTPAGSPDGSLPEHHAAAPNGLPGFSVETIMTLRTSPPGGDLSPAAARAGLVVPPLALPYAAAPPAAYTQPCAQGLEAAGSAGYQCSMRAMSLYTGAERPAHVCVPPALDEALSDHPSGPGSPLGALNLAAGQEGALGASGHHHQHHGHLHPQAPPPAPQPPPAPQPATQATSWYLNHGGDLSHLPGHTFATQQQTFPNVREMFNSHRLGLDNSSLGESQVSNASCQLPYRATPSLYRHAAPYSYDCTKY | no binding | binds |
